According to PubChem BioAssay AID256 (DTP/NCI, 2004):
The list is a part of this screen's results and no random one: it gathers tests that were run many times, whatever their T/C, doses with no T/C, and many T/C values between a quarter and a half above the control. Other doses and runs of a compound stand elsewhere. T/C: endpoint of the treated group in % of that of the vehicle group. Some doses have a count of surviving animals in place of a T/C: the source files T/C as zero there, which appears to mark a toxic dose or a test without result, not a measured value. Some survivor counts are full or nearly so, which does not show that the dose was tolerated: the source hardly ever lists a survival T/C far under the control, and the zero likely stands for such cases as well. Counts of survivors are from the toxicity check (mostly the fifth day) where no day follows; animals may have died later. Schedules are NCI's codes, read here as Q, the interval in days (D) or hours (H), X, the number of doses. Some entries were tested several times; their values stand side by side, smallest first. For survival time, the PubChem record calls one and a half times the control and up active, and a quarter to a half above the control has no call in these data; cut-offs in other NCI protocols can differ. Some T/C values carry the count of animals alive at the toxicity check (mostly the fifth day); without a count, all were alive then.

System: CD2F1 mice, L1210 leukemia ip, survival T/C
Test: NCI In Vivo Anticancer Drug Screen. Data for tumor model L1210 Leukemia (intraperitoneal) in CD2F1 (CDF1) mice
Details: higher T/C = longer survival
Method in brief: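 Activity against a transplanted murine tumor was judged by comparing the compound group with a vehicle group. The outcome in the treated animals was divided by that in the controls.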

[1] = T/C endpoint: mean survival time, dose: 400.0 mg/kg/injection, schedule: Q01DX009 (ip), vehicle: saline
[2] = T/C endpoint: mean survival time, dose: 400.0 mg/kg/injection, schedule: Q04DX003 (ip), vehicle: saline with Tween-80
[3] = T/C endpoint: mean survival time, dose: 400.0 mg/kg/injection, schedule: Q04DX003 (ip), vehicle: saline
[4] = T/C endpoint: mean survival time, dose: 200.0 mg/kg/injection, schedule: Q04DX002 (ip), vehicle: saline with Tween-80
[5] = T/C endpoint: mean survival time, dose: 400.0 mg/kg/injection, schedule: Q01DX009 (ip), vehicle: Klucel (hydroxypropylcellulose) (HPC)
[6] = T/C endpoint: mean survival time, dose: 100.0 mg/kg/injection, schedule: Q04DX003 (ip), vehicle: saline with Tween-80
[7] = T/C endpoint: mean survival time, dose: 200.0 mg/kg/injection, schedule: Q04DX003 (ip), vehicle: saline with Tween-80

`CC1=NN(c2ccccc2)C(=O)/C1=C/N(C)C` was tested, and the survivor count (T/C endpoint: mean survival time, dose: 25.0 mg/kg/injection, schedule: Q04DX003 (ip), vehicle: saline with Tween-80) was 1 of 6.

`CCCC(N)C(=O)c1ccccc1` (stereo not given) was tested, and the survivor count (T/C endpoint: mean survival time, dose: 150.0 mg/kg/injection, schedule: Q04DX003 (ip), vehicle: saline) was 2 of 6, the survivor count (T/C endpoint: mean survival time, dose: 225.0 mg/kg/injection, schedule: Q04DX003 (ip), vehicle: saline) was 0 of 6 and the survivor count (T/C endpoint: mean survival time, dose: 335.0 mg/kg/injection, schedule: Q04DX003 (ip), vehicle: saline) was 0 of 6.

`C=C1C(=O)O[C@@H]2C[C@@]3(C)CCC[C@H](C)C3=C[C@H]12` was tested, and the survivor count [1] was 0 of 6.

With `CN(C)CCSCC(=O)N1c2ccccc2Sc2ccc(Cl)cc21` the survivor count (T/C endpoint: mean survival time, dose: 200.0 mg/kg/injection, schedule: Q01DX009 (ip), vehicle: saline with Tween-80) was 0 of 6 and the survivor count [2] was 0 of 6.

For `C/C=C(\C)c1cc(=O)c2c(C)cc3c(c2o1)C(=O)c1c(O)c(C2CC(C)(N(C)C)C(OC(C)=O)C(C)O2)cc(C2CC(N(C)C)C(O)C(C)O2)c1C3=O` (stereo not given), the survivor count (T/C endpoint: mean survival time, dose: 5.0 mg/kg/injection, schedule: Q01DX009 (ip), vehicle: saline) was 5 of 6.

For `O=C=Nc1ccc(N=Nc2ccccc2)cc1`, the survivor count (T/C endpoint: mean survival time, dose: 200.0 mg/kg/injection, schedule: Q01DX001 (ip), vehicle: saline with Tween-80) was 6 of 6.

`COc1cc(OC)c(/C=C/c2c3ccccc3cc[n+]2C)c(OC)c1` was tested, and the survivor count (T/C endpoint: mean survival time, dose: 12.5 mg/kg/injection, schedule: Q01DX009 (ip), vehicle: saline with Tween-80) was 0 of 6, the survivor count (T/C endpoint: mean survival time, dose: 25.0 mg/kg/injection, schedule: Q01DX009 (ip), vehicle: saline with Tween-80) was 0 of 6 and the survivor count (T/C endpoint: mean survival time, dose: 50.0 mg/kg/injection, schedule: Q01DX009 (ip), vehicle: saline with Tween-80) was 0 of 6.

With `Cc1c2c[n+](CCCCCCCC[n+]3ccc4c(C)c5c(c(C)c4c3)c3ccccc3n5CCO)ccc2c(C)c2c1c1ccccc1n2CCO` the T/C (T/C endpoint: mean survival time, dose: 3.13 mg/kg/injection, schedule: Q04DX003 (ip), vehicle: distilled water + Tween-80) was 132 and 137 % of control [5 of 6 alive], the T/C (T/C endpoint: mean survival time, dose: 12.5 mg/kg/injection, schedule: Q04DX003 (ip), vehicle: distilled water + Tween-80) was 132 % of control and the survivor count (T/C endpoint: mean survival time, dose: 25.0 mg/kg/injection, schedule: Q04DX003 (ip), vehicle: distilled water + Tween-80) was 3 of 6 and 6 of 6. For the same compound, the survivor count (T/C endpoint: mean survival time, dose: 50.0 mg/kg/injection, schedule: Q04DX003 (ip), vehicle: distilled water + Tween-80) was 4 of 6.

With `CCOC(=N)c1cn(C2OC(CO)C(O)C2O)c2nc[nH]c(=O)c12` (stereo not given) the survivor count (T/C endpoint: mean survival time, dose: 150.0 mg/kg/injection, schedule: Q01DX001 (ip), vehicle: saline) was 1 of 6 and the survivor count (T/C endpoint: mean survival time, dose: 300.0 mg/kg/injection, schedule: Q01DX001 (ip), vehicle: saline) was 0 of 6.

In the case of `CCCCCCCCCCCCNC(=O)C[n+]1cccc(C(=O)NC)c1`, the survivor count (T/C endpoint: mean survival time, dose: 100.0 mg/kg/injection, schedule: Q04DX003 (ip), vehicle: saline) is reported as 0 of 6, the survivor count (T/C endpoint: mean survival time, dose: 200.0 mg/kg/injection, schedule: Q04DX003 (ip), vehicle: saline) is reported as 0 of 6 and the survivor count [3] is reported as 0 of 6.

For `O=C(O)CCCCCCCC(=O)O`, the survivor count (T/C endpoint: median survival time, dose: 200.0 mg/kg/injection, schedule: Q01DX009 (ip), vehicle: distilled water + Tween-80) was 2 of 6.

`CCCCCCCCCCCCCCCCCC(=O)Nc1ccn(C2OC(CO)C(O)C2O)c(=O)n1` (stereo not given) was tested, and the T/C (T/C endpoint: mean survival time, dose: 12.5 mg/kg/injection, schedule: Q04DX002 (ip), vehicle: saline with Tween-80) was 147 % of control and the T/C [4] was 133 % of control [5 of 6 alive].

`C/C=C/C=C/c1cc2cc3c(c(O)c2c(=O)[nH]1)C1(CC3)C(O)=c2c(=O)c3c(=O)cc(OC)c(=O)c=3c(=O)c2=C1O` (stereo not given) was tested, and the survivor count (T/C endpoint: mean survival time, dose: 0.01 mg/kg/injection, schedule: Q01DX009 (ip), vehicle: DMSO) was 6 of 6, the survivor count (T/C endpoint: mean survival time, dose: 0.03 mg/kg/injection, schedule: Q01DX009 (ip), vehicle: DMSO) was 6 of 6 and the survivor count (T/C endpoint: mean survival time, dose: 0.12 mg/kg/injection, schedule: Q01DX009 (ip), vehicle: DMSO) was 3 of 6. For the same compound, the survivor count (T/C endpoint: mean survival time, dose: 0.25 mg/kg/injection, schedule: Q01DX009 (ip), vehicle: DMSO) was 3 of 6, the survivor count (T/C endpoint: mean survival time, dose: 0.5 mg/kg/injection, schedule: Q01DX009 (ip), vehicle: DMSO) was 0 of 6 and the survivor count (T/C endpoint: mean survival time, dose: 1.0 mg/kg/injection, schedule: Q01DX009 (ip), vehicle: DMSO) was 0 of 6 and 9 of 10. The survivor count (T/C endpoint: mean survival time, dose: 2.0 mg/kg/injection, schedule: Q01DX009 (ip), vehicle: DMSO) was 0 of 6 and 2 of 10, the survivor count (T/C endpoint: median survival time, dose: 0.06 mg/kg/injection, schedule: Q01DX009 (ip), vehicle: DMSO) was 1 of 6 and the survivor count (T/C endpoint: median survival time, dose: 0.12 mg/kg/injection, schedule: Q01DX009 (ip), vehicle: DMSO) was 5 of 6.

With `Cc1ccc(C(=O)/C=C/c2ccccc2)cc1` the survivor count [5] was 5 of 6.

`Cc1ccc(C(=O)NC2C(=O)NC(C(C)C)C(=O)N3CCCC3C(=O)N(C)CC(=O)N(C)C(C(C)C)C(=O)OC2C)c2c1Oc1c(c(C(=O)NC3C(=O)NC(C(C)C)C(=O)N4CCCC4C(=O)N(C)CC(=O)N(C)C(C(C)C)C(=O)OC3C)c3nc(-c4ccccc4)c(=O)oc3c1C)N2` (stereo not given) was tested, and the T/C (T/C endpoint: median survival time, dose: 0.12 mg/kg/injection, schedule: Q01DX009 (ip), vehicle: water) was 128 % of control, the T/C (T/C endpoint: median survival time, dose: 0.5 mg/kg/injection, schedule: Q01DX009 (ip), vehicle: water) was 142 and 145 % of control and the survivor count (T/C endpoint: median survival time, dose: 1.0 mg/kg/injection, schedule: Q01DX009 (ip), vehicle: water) was 4 of 6 and 6 of 6. The survivor count (T/C endpoint: median survival time, dose: 2.0 mg/kg/injection, schedule: Q01DX009 (ip), vehicle: water) was 2 of 6.

For `CNCCN1CCC(Cc2ccccc2)CC1`, the survivor count [1] was 0 of 6.

For `CN(C)C(=S)N1C(=O)C2C3CCC(O3)C2C1=O` (stereo not given), the survivor count (T/C endpoint: mean survival time, dose: 25.0 mg/kg/injection, schedule: Q04DX002 (ip), vehicle: saline with Tween-80) was 0 of 3, the survivor count (T/C endpoint: mean survival time, dose: 50.0 mg/kg/injection, schedule: Q04DX002 (ip), vehicle: saline with Tween-80) was 0 of 3 and the survivor count (T/C endpoint: mean survival time, dose: 100.0 mg/kg/injection, schedule: Q04DX002 (ip), vehicle: saline with Tween-80) was 0 of 3.

In the case of `COC1=C(C)C(=O)c2c(c(COC(N)=O)c3n2CCC3OC(N)=O)C1=O` (stereo not given), the survivor count (T/C endpoint: mean survival time, dose: 20.0 mg/kg/injection, schedule: Q01DX001 (ip), vehicle: distilled water + Tween-80) is reported as 0 of 6 and the survivor count (T/C endpoint: mean survival time, dose: 24.0 mg/kg/injection, schedule: Q01DX001 (ip), vehicle: distilled water + Tween-80) is reported as 3 of 6.

With `CC1Cc2c([nH]c3ccc(Cl)cc23)CN1` (stereo not given) the survivor count (T/C endpoint: mean survival time, dose: 400.0 mg/kg/injection, schedule: Q04DX002 (ip), vehicle: saline with Tween-80) was 1 of 3.

`Nc1ncnc2c1ncn2C1OC(CF)C(O)C1O` (stereo not given) was tested, and the survivor count (T/C endpoint: mean survival time, dose: 400.0 mg/kg/injection, schedule: Q01DX001 (ip), vehicle: saline) was 2 of 6.

`CC(O)(P(=O)(O)O)P(=O)(O)O.[NH-]CC[NH-].[NH-]CC[NH-].[Pd+2].[Pd+2]` was tested, and the survivor count (T/C endpoint: mean survival time, dose: 200.0 mg/kg/injection, schedule: Q04DX003 (ip), vehicle: water) was 2 of 6.

For `N#Cc1ccc([N+](=O)[O-])o1`, the survivor count [6] was 5 of 6.

`FC(F)(F)/C([S-])=C(/[S-])C(F)(F)F.N#[O+].[Mn].[c-]1[c-][c-][cH-][c-]1` was tested, and the survivor count (T/C endpoint: mean survival time, dose: 150.0 mg/kg/injection, schedule: Q01DX001 (ip), vehicle: other) was 1 of 6 and the survivor count (T/C endpoint: mean survival time, dose: 300.0 mg/kg/injection, schedule: Q01DX001 (ip), vehicle: other) was 0 of 6.

In the case of `COc1cccc(C(O)c2ccncc2C)c1OC` (stereo not given), the survivor count [5] is reported as 1 of 6.

For `CCCCCCCCCCC[n+]1ccc(C(N)=O)cc1`, the survivor count [6] was 1 of 6, the survivor count [7] was 0 of 6 and the survivor count [2] was 0 of 6.

With `O=C(O)C1CC1.[Ag]` the survivor count [3] was 0 of 6.

`CN(C)Cc1cc(C(C)(C)CC(C)(C)C)cc(CN(C)C)c1O` was tested, and the survivor count [7] was 2 of 6 and the survivor count [2] was 0 of 6.

With `Cc1ccc(-n2c(=S)[nH]c3ccccc3c2=O)cc1` the survivor count [7] was 3 of 6 and the survivor count [2] was 1 of 6.

For `CC(CO)CCC(=O)C(C)C1C2(CC3C4CCC5CC(O)CCC5(C)C4CCC31C)SCCS2` (stereo not given), the survivor count [4] was 3 of 3.
